Measurements taken from publication PMC12520464.
Where a chain is given by its changes, count along the chain named. These are yes or no findings as the source states them, for the method shown. Binding seen in cells or lysates may run through a third protein. Some entries that bind do so weakly or less than the wild type. For part of these data: Tags and fused reporters may be left off the sequences shown. Blank lines part the entries; values can stand above or below the substance they belong to.

Chains of the proteins cited; added tags and fusions are not shown.
UniProt Q09472: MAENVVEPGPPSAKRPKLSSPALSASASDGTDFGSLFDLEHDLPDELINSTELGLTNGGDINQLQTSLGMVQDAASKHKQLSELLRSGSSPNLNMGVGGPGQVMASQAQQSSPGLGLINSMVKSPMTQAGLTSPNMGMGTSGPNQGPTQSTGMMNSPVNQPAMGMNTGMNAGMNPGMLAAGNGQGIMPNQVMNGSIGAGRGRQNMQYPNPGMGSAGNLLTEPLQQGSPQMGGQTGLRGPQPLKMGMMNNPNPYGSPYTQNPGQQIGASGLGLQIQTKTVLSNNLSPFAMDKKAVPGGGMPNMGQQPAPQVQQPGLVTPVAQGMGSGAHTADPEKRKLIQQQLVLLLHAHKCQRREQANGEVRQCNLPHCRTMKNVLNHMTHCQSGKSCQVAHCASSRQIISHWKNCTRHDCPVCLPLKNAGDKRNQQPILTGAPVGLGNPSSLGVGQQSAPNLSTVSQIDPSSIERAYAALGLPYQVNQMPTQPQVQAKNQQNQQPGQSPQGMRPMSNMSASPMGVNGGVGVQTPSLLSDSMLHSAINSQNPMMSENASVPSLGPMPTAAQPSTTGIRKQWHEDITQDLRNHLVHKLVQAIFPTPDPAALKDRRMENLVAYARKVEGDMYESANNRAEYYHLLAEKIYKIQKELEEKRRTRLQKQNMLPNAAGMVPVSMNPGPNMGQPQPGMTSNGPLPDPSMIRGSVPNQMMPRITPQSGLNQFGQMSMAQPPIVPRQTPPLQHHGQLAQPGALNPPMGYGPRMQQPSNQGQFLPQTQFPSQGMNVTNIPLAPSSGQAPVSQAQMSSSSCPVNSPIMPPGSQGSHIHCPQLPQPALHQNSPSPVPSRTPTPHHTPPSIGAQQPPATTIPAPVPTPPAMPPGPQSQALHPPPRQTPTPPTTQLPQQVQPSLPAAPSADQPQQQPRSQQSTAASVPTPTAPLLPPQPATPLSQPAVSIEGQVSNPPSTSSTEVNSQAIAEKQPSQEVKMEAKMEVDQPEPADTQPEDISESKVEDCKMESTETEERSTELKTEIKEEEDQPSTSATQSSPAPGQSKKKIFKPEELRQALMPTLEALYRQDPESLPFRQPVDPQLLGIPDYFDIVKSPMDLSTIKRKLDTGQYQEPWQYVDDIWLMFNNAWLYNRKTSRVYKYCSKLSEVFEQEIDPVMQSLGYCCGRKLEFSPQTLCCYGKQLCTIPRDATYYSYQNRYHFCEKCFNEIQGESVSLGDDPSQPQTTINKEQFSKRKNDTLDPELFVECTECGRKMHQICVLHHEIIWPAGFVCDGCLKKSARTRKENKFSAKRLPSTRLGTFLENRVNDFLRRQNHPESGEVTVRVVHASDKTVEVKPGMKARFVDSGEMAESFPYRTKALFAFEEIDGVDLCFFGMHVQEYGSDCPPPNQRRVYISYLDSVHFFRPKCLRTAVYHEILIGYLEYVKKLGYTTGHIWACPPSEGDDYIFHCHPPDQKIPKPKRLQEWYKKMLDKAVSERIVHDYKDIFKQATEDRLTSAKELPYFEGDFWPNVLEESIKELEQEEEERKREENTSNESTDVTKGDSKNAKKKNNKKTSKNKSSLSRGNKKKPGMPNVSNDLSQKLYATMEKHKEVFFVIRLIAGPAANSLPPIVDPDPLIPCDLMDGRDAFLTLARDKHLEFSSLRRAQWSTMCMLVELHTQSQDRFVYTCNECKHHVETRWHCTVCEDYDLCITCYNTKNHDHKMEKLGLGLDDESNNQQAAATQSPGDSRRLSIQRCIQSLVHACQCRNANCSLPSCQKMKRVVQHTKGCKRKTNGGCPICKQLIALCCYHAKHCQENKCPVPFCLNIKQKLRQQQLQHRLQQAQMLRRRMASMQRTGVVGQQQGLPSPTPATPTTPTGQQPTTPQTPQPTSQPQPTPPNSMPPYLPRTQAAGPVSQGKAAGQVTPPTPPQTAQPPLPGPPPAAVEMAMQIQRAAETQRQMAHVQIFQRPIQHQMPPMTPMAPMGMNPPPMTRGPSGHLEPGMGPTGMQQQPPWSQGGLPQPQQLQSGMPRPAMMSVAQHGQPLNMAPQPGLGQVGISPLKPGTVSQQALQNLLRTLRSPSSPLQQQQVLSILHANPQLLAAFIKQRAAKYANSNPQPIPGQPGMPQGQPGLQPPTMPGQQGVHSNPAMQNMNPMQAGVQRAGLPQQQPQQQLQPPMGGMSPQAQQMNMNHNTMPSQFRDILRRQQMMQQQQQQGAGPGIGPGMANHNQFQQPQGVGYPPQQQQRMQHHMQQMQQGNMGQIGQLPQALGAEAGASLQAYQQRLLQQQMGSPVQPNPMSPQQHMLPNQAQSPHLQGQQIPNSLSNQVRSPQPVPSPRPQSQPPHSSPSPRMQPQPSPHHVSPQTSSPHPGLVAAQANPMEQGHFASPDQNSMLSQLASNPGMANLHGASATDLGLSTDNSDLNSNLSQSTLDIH

What was measured:
[1] = molecular target: T1, Flag-ARG1 (full-length human arginase-1, pcDNA3.1-Flag) (human) (UniProt P05089); test: co-IP; exogenous co-IP of ARG1 and P300 in HCT116 and RKO cells; IP lysis buffer, primary antibody and Protein A/G magnetic beads overnight at 4 °C
T1 sequence: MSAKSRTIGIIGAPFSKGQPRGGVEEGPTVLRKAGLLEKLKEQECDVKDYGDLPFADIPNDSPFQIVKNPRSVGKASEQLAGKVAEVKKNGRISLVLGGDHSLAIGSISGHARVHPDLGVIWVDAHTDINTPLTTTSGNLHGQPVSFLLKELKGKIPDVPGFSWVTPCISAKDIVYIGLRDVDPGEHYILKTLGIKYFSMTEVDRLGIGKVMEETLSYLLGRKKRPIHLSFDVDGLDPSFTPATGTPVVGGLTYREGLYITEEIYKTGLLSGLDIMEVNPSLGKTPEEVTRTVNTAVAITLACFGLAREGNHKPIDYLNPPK

[2] = molecular target: T2, ARG1 (arginase-1), endogenous (human (endogenous in HCT116 and RKO)) (UniProt P05089); test: co-IP; endogenous co-IP of ARG1 and P300 in HCT116 and RKO cells; IP lysis buffer, primary antibody and Protein A/G magnetic beads overnight at 4 °C
T2 sequence: T1 sequence

Flag-ARG1^K39R (human) = molecular target: T3, Flag-ARG1^K39R (human) (UniProt P05089); test: co-IP; HCT116 cells transfected with Flag-ARG1 WT, K39R or K313R for 24 h, then BHB for 48 h; lysates immunoprecipitated with anti-ARG1 antibody
T3 sequence: T1 sequence with K39R

[3] = molecular target: T1, Flag-ARG1 (full-length human arginase-1, pcDNA3.1-Flag) (human); test: as above
[4] = molecular target: T2, ARG1 (arginase-1), endogenous (human (endogenous in HCT116 and RKO)); test: co-IP; tumour tissue lysates (HCT116 xenografts in BALB/c nude mice) of the Saline and BHB groups, immunoprecipitated with anti-ARG1 antibody
[5] = molecular target: T2, ARG1 (arginase-1), endogenous (human (endogenous in HCT116 and RKO)); test: co-IP; lysates of HCT116 and RKO cells treated with or without BHB (48 h) or BHB + A485; immunoprecipitated with anti-SLC3A2 or anti-ARG1 antibody

- binding [1]: binds
Substance: HA-P300 (from UniProt Q09472 1-2414)

- binding [2]: binds
Substance: P300, endogenous (from UniProt Q09472 1-2414)

- binding (Flag-ARG1^K39R (human)): binds
- binding [3]: binds
- binding [4]: binds
- binding [5]: binds
Substance: solute carrier family 3 member 2 (SLC3A2), endogenous (from UniProt P08195 1-529)
